Source: PubChem BioAssay AID1347075 (National Center for Advancing Translational Sciences (NCATS), 2019)
About 5,500 (1.4%) of roughly 400,000 compounds were called active. The inconclusive results got no clear call from the source; some entries with a clear call stand among them for comparison. Calls follow the shape of the dose curve; as a rule, active = well fitted cell-killing curve with a large enough effect; inconclusive = small, poorly fitted or top-dose-only effect, or effect the other way; inactive = flat fitted curve, though single readings scatter. Potencies beside an inconclusive call are fits to weak or partial responses and may not hold up.

Assay: qHTS assay for MDR1-selective chemotherapeutics: Primary screen using the parental adenocarcinoma cell KB-3-1; also: nearly all actives have a fitted effect of over 60% in size
Conditions: KB-3-1 viability, CellTiter-Glo ATP luminescence, 72 h; activity change, negative = cytotoxic: at 46.1 µM (top of the series)
Procedure, shortened: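 KB-3-1 parental drug-naive adenocarcinoma cells in DMEM/10% FBS, incubated 72 h at 37 C with pin-transferred compounds across a concentration series. Viability by CellTiter-Glo luminescence; concentration-response curves fitted after normalization.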
% is scaled to controls: 0 for no effect and ±100 for the full control effect; potency is read from the fitted curve at half-maximal effect.

Compound | Potency | activity change, negative = cytotoxic
CCOC(=O)c1c(C)[nH]c(C)c1C(=O)CSc1nc2ccccc2[nH]1 | inactive | 
O=C(NCCN1CCOCC1)c1ccc2c(c1)N(Cc1ccccc1)C(=O)CS2 | inconclusive: 11.6 µM [rising, partial curve, poor fit] | 
Cc1cc(S(=O)(=O)NC(C)c2nnc3ccccn23)ccc1Br (centres undefined) | inactive | 
O=C(CN1CCC(c2nc3ccccc3[nH]2)CC1)NCc1ccc2c(c1)OCO2 | inconclusive: 25.9 µM [rising, single point] | 
CCOC(=O)Cn1c(=O)oc2cc(S(=O)(=O)N3CCN(c4cccc(C)c4)C(C)C3)ccc21 (centres undefined) | inactive | 
Cc1ccc2nc(SCC(=O)Nc3ccc4sc(C)nc4c3)c(C#N)cc2c1 | inconclusive: 29.1 µM [cytotoxic, single point] | 
CCN1C(=O)[C@H]2[C@@H](c3ccc(-c4cccc(Cl)c4)c(OC)c3)N[C@@](CC(C)C)(C(=O)OC)[C@H]2C1=O | inconclusive: 20.6 µM [cytotoxic, partial curve] | 
c1ccc(-c2nc(NCc3ccco3)c3ccccc3n2)cc1 | inconclusive: 20.6 µM [cytotoxic, single point] | 
Cc1cc(Cl)c(S(=O)(=O)NC2CCCC2)cc1OCC(=O)NC1CCCCC1 | inconclusive: 12.6 µM [cytotoxic, single point] | 
COc1ccc(N(C)C2=NS(=O)(=O)c3ccccc32)cc1 | inconclusive: 1.64 µM [cytotoxic, partial curve, poor fit] | 
CCSc1nsc(NC(=O)Nc2cccc(OC)c2)n1 | inconclusive: 25.9 µM [cytotoxic, single point] | 
Cc1nc2cccnc2n1-c1cccc(C(=O)NCCN(C)C)c1 | inactive | 
Cc1nc(-c2ccc(NC(=O)c3cccs3)cc2)cs1 | inconclusive: 9.2 µM [cytotoxic, partial curve] | 
CN(C)c1ccc(Nc2nc(N)c3ccccc3n2)cc1 | inconclusive: 16.4 µM [cytotoxic, partial curve, poor fit] | 
CN(C)c1cccc(C(=O)N2CCCC(CCC(=O)NCc3ccccc3F)C2)c1 (centres undefined) | inconclusive: 29.1 µM [cytotoxic, single point] | 
CC1CC(C)CN(S(=O)(=O)c2ccc3c(c2)CC(=O)N3)C1 (centres undefined) | inactive | 
CCC(=O)c1ccc(OCC(O)CN2CCN(c3cccc(C(F)(F)F)c3)CC2)cc1 (centres undefined) | inconclusive: 16.4 µM [cytotoxic, single point] | 
CC1C(=O)C(C)C(c2ccc([N+](=O)[O-])cc2)NC1c1ccc([N+](=O)[O-])cc1 (centres undefined) | inactive | 
CC1=C(C(=O)OCc2ccc3c(c2)OCO3)C(c2ccc(F)cc2)NC(=O)N1 (centres undefined) | active: 14.6 µM | 
CC1(C)Cc2c(sc3nnn(Cc4ccc(Cl)cc4)c(=O)c23)CO1 | inconclusive: 20.6 µM [cytotoxic, single point] | 
S=C(Nc1ccccc1Cl)N1CCCCCC1 | inactive | 
Cc1ccc2nc(-c3ccncc3)cc(-c3ccccc3)c2c1 | inactive | 
O=C(Nc1cccc(Cl)c1N1CCCC1)c1ccc(Br)o1 | inactive | 

Compound | Potency | activity change, negative = cytotoxic
CC(O)(c1ccc(F)c(F)c1)c1nc(-c2ccc(S(C)(=O)=O)cc2)cs1 (centres undefined) | inconclusive: 29.1 µM [cytotoxic, single point] | 
COCCN(Cc1ccco1)C(=O)c1cc2c(=O)[nH]c3ccc(C)cc3c2s1 | inactive | 
Cc1ccc(NC(=O)c2cccc(F)c2)cc1S(=O)(=O)N1CCCCCC1 | inconclusive: 20.6 µM [cytotoxic, single point] | 
CCC(C)C(=O)Nc1nc(C)c(-c2csc(Nc3ccc(Cl)cc3)n2)s1 (centres undefined) | active: 6.51 µM | 
COc1nc(C)ccc1-c1noc(-c2cccnc2)n1 | inactive | 
COc1ccc(NS(=O)(=O)c2ccc(NC(=S)NC(=O)c3ccc(Br)cc3)cc2)nn1 | inactive | 
CCCCn1c(N)c(N(CCOC)C(=O)CCC2CCCCC2)c(=O)[nH]c1=O |  | inconclusive: -30.1% [cytotoxic]
COc1ccc(C2C=C(c3ccc(Cl)cc3)Nc3nc(-c4ccc(Cl)cc4)nn32)cc1 (centres undefined) | inconclusive: 32.6 µM [cytotoxic, single point] | 
Cc1ccc(C(OCC(O)CNCc2ccc(F)cc2)c2ccccc2)cc1 (centres undefined) | inconclusive: 0.58 µM [cytotoxic, full curve, poor fit] | 
COc1ccc(-c2nc3cc(C)ccn3c2NC2CCCCC2)cc1SC1CCCCC1 | inconclusive: 20.6 µM [cytotoxic, single point] | 
CCC(C(=O)NCCCc1ccccc1)n1nc(C)c2c(C)n(-c3ccccc3)nc2c1=O (centres undefined) | inconclusive: 29.1 µM [cytotoxic, single point] | 
CCN1CCOC(CC(=O)Nc2ccc([N+](=O)[O-])cc2)C1=O (centres undefined) | inactive | 
Cc1ccccc1Nc1n[nH]c(C)c1[N+](=O)[O-] | inconclusive: 32.6 µM [cytotoxic, single point] | 
FC(F)(F)c1ccc(C2[C@H]3CN(Cc4ccc(-c5ccccc5)cc4)[C@H](c4ccccc4)C34CC2(c2cccnc2)C4)cc1 (some centres undefined) | inconclusive: 16.4 µM [cytotoxic, partial curve, poor fit] | 
CCN(C(=O)CSc1nccn1C)c1cccc2ccccc12 | inactive | 
COC(=O)c1ccc(NC(=O)CSc2nnc3c4ccccc4n(C(C)C)c3n2)cc1 | inactive | 
COCCn1c(-c2ccc(OC(F)(F)C(F)C(F)(F)F)cc2)nc2c1c(=O)[nH]c(=O)n2CC(C)C (centres undefined) | inconclusive: 32.6 µM [cytotoxic, single point] | 
O=C(Nc1ccc(S(=O)(=O)N2CCOCC2)cc1)C1CC1 | inconclusive: 0.206 µM [cytotoxic, full curve] | 
Cc1ccccc1-c1cc(-c2ccccc2O)n[nH]1 | inconclusive: 29.1 µM [cytotoxic, single point] | 
Cc1ccc(-n2ncc3c(N4CCN(c5ccccc5)CC4)ncnc32)c(C)c1 | inconclusive: 3.66 µM [cytotoxic, full curve, poor fit] | 
CCOC(=O)c1c(NC(=O)c2cc(=O)c3cc(C)cc(C)c3o2)sc(C)c1C | inactive | 
COc1cc(C(=O)Nc2ccc3nc(N4CCN(C)CC4)cc(C)c3c2)cc(OC)c1OC | inconclusive: 29.1 µM [cytotoxic, single point] | 
Cc1cc(NCCCCCCCNc2cc(C)nc3cc([N+](=O)[O-])ccc23)c2ccc([N+](=O)[O-])cc2n1 | inconclusive: 29.1 µM [cytotoxic, single point] | 

Compound | Potency | activity change, negative = cytotoxic
CSc1nc2ccccc2cc1/C=C(\C#N)c1ccc(Cl)cc1Cl | inconclusive: 29.1 µM [cytotoxic, partial curve, poor fit] | 
O=C(c1cc(-c2cccc(Br)c2)nc2ccccc12)N1CCCC1 | inactive | 
CC(OC(=O)C1CSC2(C)CCC(=O)N12)C(=O)Nc1cccc(C#N)c1 (centres undefined) | inactive | 
CC(C)COc1ccc(C(=O)Nc2sc3c(c2C(=O)O)CC(C)(C)OC3)cc1 | active: 8.2 µM | 
Cc1noc(C)c1NC(=O)N(C)C[C@H]1OCc2cnnn2CCCC(=O)N([C@H](C)CO)C[C@H]1C | inconclusive: 29.1 µM [cytotoxic, single point] | 
C/C(=N\NC(=S)Nc1ccccc1C)C1Cc2ccccc2C(=O)O1 (centres undefined) |  | inconclusive: 0%
CCOC(=O)c1c(NC(=O)CSc2nnnn2C)sc(C)c1-c1ccc(C)cc1 | inconclusive: 29.1 µM [cytotoxic, single point] | 
Cc1ccc2[nH]c(=S)cc(C)c2c1 | inconclusive: 18.4 µM [cytotoxic, single point] | 
Cn1c(=O)c2c(nc(NCCCO)n2Cc2cccc(Br)c2)n(C)c1=O | inactive | 
COc1ccc(S(=O)(=O)Nc2ccc(S(=O)(=O)Nc3nccs3)cc2)cc1 | inconclusive: 0.0326 µM [rising, full curve] | 
Cc1cc(C)cc(SCc2noc(C(=O)NCCN(C)C)c2C(=O)NCCN(C)C)c1 | inconclusive: 3.26 µM [cytotoxic, partial curve, poor fit] | 
COc1cc(OC)c(/C=C/c2cc(/C=C/c3c(OC)cc(OC)cc3OC)[n+](C)c3ccccc23)c(OC)c1 | active: 23.1 µM | 
CCN(CC)c1ccc(-c2c(C#N)c(N)nc(OC)c2C#N)cc1 | inactive | 
Cc1cc(C)c2c(CCl)cc(=O)oc2c1 | inconclusive: 3.26 µM [cytotoxic, partial curve, poor fit] | 
CC1(C)Oc2ccc3ccc(=O)oc3c2C[C@H]1O[C@@H]1O[C@H](CO)[C@@H](O)[C@H](O)[C@H]1O | inactive | 
COc1ccc(/C=C/c2ccc3ccccc3n2)c(OC)c1 | inconclusive: 18.4 µM [cytotoxic, partial curve] | 
CCn1cc(C(=O)NCc2cccc(F)c2)c(=O)c2cc(F)c(N3CCN(C(=O)c4ccco4)CC3)cc21 | inconclusive: 29.1 µM [cytotoxic, single point] | 
Cn1cc(/C=C(\C#N)C(=O)Nc2cccc([N+](=O)[O-])c2)c2ccccc21 | inconclusive: 23.1 µM [cytotoxic, partial curve] | 
O=C(O)c1ccc(Cn2cc(C(F)(F)F)ccc2=O)cc1 | inactive | 
C=C1C(=O)C=C2CN(C(=O)c3ccccc3)[C@@](Cc3ccc(F)cc3)(C(=O)OC)[C@@H]12 | active: 5.17 µM | 
COc1cc(NC(=O)C(Cc2ccccc2)NS(=O)(=O)c2cccs2)cc(OC)c1 (centres undefined) | inconclusive: 3.26 µM [cytotoxic, partial curve, poor fit] | 
CC(C)NC(=S)NCc1cccnc1 | inactive | 
COC(=O)c1ccccc1NC(=O)c1cccc(COc2ccccc2Cl)c1 | inconclusive: 9.2 µM [cytotoxic, partial curve, poor fit] | 

Look-ups from the results shown.
CCn1cc(C(=O)NCc2cccc(F)c2)c(=O)c2cc(F)c(N3CCN(C(=O)c4ccco4)CC3)cc21 | Potency: inconclusive: 29.1 µM [cytotoxic, single point]
CC(C)COc1ccc(C(=O)Nc2sc3c(c2C(=O)O)CC(C)(C)OC3)cc1 | Potency: active: 8.2 µM
